Results taken from ChEMBL document CHEMBL4145659, “Discovery of a Series of Indole-2 Carboxamides as Selective Secreted Phospholipase A2 Type X (sPLA2-X) Inhibitors” (ACS Med Chem Lett, 2018).
Converted amounts (≈) assume the structure as drawn.

Test: physchem

NC(=O)c1cc2ccc(OC(F)(F)F)cc2n1-c1cccc(CCC(=O)O)c1
solubility at 24 h: 98 µM (≈ 38.4 µg/mL)
